In US8313920B2, “High-throughput assay for evaluating dipeptidyl peptidase I activity” (Janssen Research & Development, LLC, priority 2008, dated 2012):
Several values for one entry are separate records, joined by “and”; a condition that tells them apart may be missing. Equal values may be shown once. At least one peptide structure holds a part that was inferred or is arguable (an end, a ring closure or a residue). No end group written: not given here.

Sequences of proteins named here, by UniProt entry; tags and fusion partners are left off. Residues count along the entry.
UniProt P53634, 395-463 limits assumed, species assumed: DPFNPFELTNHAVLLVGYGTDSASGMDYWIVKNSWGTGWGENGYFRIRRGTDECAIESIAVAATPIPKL
UniProt P53634, 25-134 limits assumed, species assumed: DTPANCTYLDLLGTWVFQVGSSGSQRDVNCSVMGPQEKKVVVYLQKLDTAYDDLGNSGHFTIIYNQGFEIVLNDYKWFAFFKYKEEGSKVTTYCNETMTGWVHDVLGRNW
UniProt P53634, 231-394 limits assumed, species assumed: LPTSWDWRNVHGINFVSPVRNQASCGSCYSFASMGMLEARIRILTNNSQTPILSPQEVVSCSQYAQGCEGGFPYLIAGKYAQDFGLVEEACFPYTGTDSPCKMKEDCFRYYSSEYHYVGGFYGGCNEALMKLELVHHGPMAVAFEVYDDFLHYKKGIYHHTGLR

Molecular target: T1, dipeptidyl peptidase I (DPPI) (Homo sapiens, UniProt P53634)
T1 construct: made in house; host or cells: Hi5 insect cells (baculovirus)
Assay: Initial velocity analysis of DPPI with the 20-mer substrate, mass spectrometry
Type: biochemical
Settings: 20-mer as DPPI substrate, about 2 nM DPPI, pH 7.0
Procedure: FIG. 1. Initial velocity analysis for DPP1 kinetic constant in reaction with a 20-mer substrate (A) and a dipeptide substrate (B). (A) About 2 nM of DPPI was used in the reaction with the 20-mer substrate of […] (SEQ ID NO:1) and the reaction was monitored using a mass spectrometry system. (B) About 0.4 nM of DPP1 was used in the reaction with the dipeptide substrate of GR-α-methylcoumarin and the reaction was monitored using a rate-based format monitoring fluorescence at EM=460 nm and EX=380 nm. Initial rates are taken from kinetic data where less than 7% substrate turnover was achieved.
Once the rate of the substrate turnover under the initial velocity condition, the kinetic constants for DPPI and the peptide substrate are calculated using the following formula (I): Y=VMAX((X+Et+KM)−((((Et+X+KM)^2)−(4XEt))^0.5))/(2Et) wherein • Y is concentration of substrate turnover • X is substrate concentration • Et is DPPI concentration • KM is substrate concentration at ½ VMAX • VMAX is substrate turnover at substrate saturation
About 2 nM of DPPI was incubated with about 0.5, 1, 2, 4, 8, 16, 32, 64, 90, 128, 150 μM of the 20-mer substrate in the reaction buffer of 50 mM HEPES (pH 7.0), 100 mM NaCl, 0.005% Tween-20, and 2 mM of DTT or GSH. […]

Sequence: GEIIGGTECKPHSRPYMAYL [20-mer]
- 2nd order rate constant: ~19500 M⁻¹ s⁻¹ and 19500 M⁻¹ s⁻¹
